# Test results: PubChem BioAssay AID504467 (National Center for Advancing Translational Sciences (NCATS), 2011)
# In all, about 330,000 compounds went through this assay and about 7,700 (2.3%) were called active. Inconclusive results, whose numbers are uncertain, are shown with a selection of clear calls. Calls follow the shape of the dose curve; as a rule, active = well fitted inhibition curve with a large enough effect; inconclusive = small, poorly fitted or top-dose-only effect, or effect the other way; inactive = flat fitted curve, though single readings scatter. Potencies beside an inconclusive call are fits to weak or partial responses and may not hold up.
# Experiment: qHTS screen for small molecules that inhibit ELG1-dependent DNA repair in human embryonic kidney (HEK293T) cells expressing luciferase-tagged ELG1; also: nearly all actives have a fitted effect of over 55% in size
# Conditions: HEK293T ELG1-luciferase reporter, luminescence, 16 h, DNA damage induced by 5-fluorouridine; activity change, negative = inhibition: at 46.1 µM (top of the series)
# How it was run: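 In this reporter screen, reduction of luminescence relative to DMSO vehicle indicated activity. Compounds and 5-fluorouridine were added together to 2,000 cells per well, incubated for 16 hr at 37 °C, then developed with ONE-Glo.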
# % is scaled to controls: 0 for no effect and ±100 for the full control effect; potency is read from the fitted curve at half-maximal effect.
Structure (SMILES),Potency,"activity change, negative = inhibition"
O=C(NCc1nc2ccccc2[nH]1)C1=C[C@H](C2CC2)C[C@H](OCc2ccc(CO)cc2)O1,"inconclusive: 29.1 µM [inhibitor, single point]",
O=C(c1ccc(F)cc1)N1CCCN(c2nc(-c3ccccc3)ns2)CC1,"inconclusive: 14.6 µM [inhibitor, partial curve]",
Cc1ccc(SCC(=O)Nc2nccs2)cc1,"inconclusive: 18.3 µM [activator, partial curve]",
Cc1ccc2c(COC(=O)C3CSC4(C)CCC(=O)N34)cc(=O)oc2c1C (stereo unspecified),,inactive: -14.3%
Nc1ccc(C(=O)n2c3ccccc3c3ccccc32)cc1,,inactive: 5.78%
COc1cccc(NC(=O)CN(C)CC(=O)Nc2ccc(C)cc2Cl)c1,,inactive: -0.751%
CCn1c(Cc2c(C)[nH]c3ccccc23)n[nH]c1=S,,inactive: 12%
CCOC(=O)C1CCN(C(=O)c2cc3ccc(OC)cc3[nH]2)CC1,"inconclusive: 13 µM [activator, partial curve]",
CCC(C)n1c(-c2cc(OC)c(OC)c(OC)c2)nc2nc3ccccc3nc21 (stereo unspecified),active: 14.6 µM,
CCOC(=O)c1cc(OC(=O)c2ccccc2Br)n(-c2ccccc2)n1,"inconclusive: 29.1 µM [activator, single point]",
COc1ccc(NC(=O)c2ccco2)cc1NC(=O)c1ccc(Br)o1,"inconclusive: 35.5 µM [inhibitor, single point]",
CCOC(=O)c1cn2nc(-c3ccc(OCC)cc3)cc2nc1C1CCN(C(=O)OC(C)(C)C)CC1,,inactive: 0.373%
FC(F)(F)c1cccc(N2Cc3ccccc3C2)c1,"inconclusive: 23.1 µM [activator, partial curve, poor fit]",
COC(=O)/C(C#N)=C/c1c(Oc2cccc(C)c2)nc2ccccn2c1=O,,inactive: -2.01%
COc1cccc(NC(=O)c2csc3c2CCCC3)c1,"inconclusive: 4.11 µM [activator, single point]",
COc1ccc(OC)c(-c2csc(N(CC3CCCO3)C(=O)Cc3ccccc3)n2)c1 (stereo unspecified),"inconclusive: 25.9 µM [inhibitor, single point]",
O=C(O)CC1CCC(=C(Cl)Cl)C1 (stereo unspecified),"inconclusive: 16.4 µM [activator, partial curve, poor fit]",
CC(=O)N1CCN(c2ccc([N+](=O)[O-])cc2)CC1,,inactive: -5.05%
Cc1ccc(-c2csc(/C(C#N)=C(\O)CCl)n2)cc1,"inconclusive: 2.31 µM [activator, partial curve]",
CCOc1nc(NC(=O)NS(=O)(=O)Oc2cccc(Cl)c2)nc(-c2ccccc2)n1,"inconclusive: 20.6 µM [activator, single point]",
CCCCC(=O)Nc1ccc(C(=O)NNC(=S)NC(=O)c2ccccc2[N+](=O)[O-])cc1,,inactive: 9.65%
CS(=O)(=O)N(CC(=O)Nc1ccc(CC#N)cc1)c1ccc(C23CC4CC(CC(C4)C2)C3)cc1,"inconclusive: 29.1 µM [inhibitor, single point]",
CCOCCn1c(SC(C)C(C)=O)nc2c1c(=O)[nH]c(=O)n2C (stereo unspecified),,inactive: 5.01%
O=C(Oc1ccc2c(c1)O/C(=C\c1ccncc1)C2=O)c1cccs1,"inconclusive: 29.1 µM [activator, single point]",

Structure (SMILES),Potency,"activity change, negative = inhibition"
COc1ccccc1N1CCN(S(=O)(=O)c2ccc3c(c2)NC(=O)CS3)CC1,,inactive: -2.54%
O=C(CCCNS(=O)(=O)c1cccc2nsnc12)NCc1ccc(Cl)cc1,"inconclusive: 29.1 µM [inhibitor, single point]",
CCc1ccc(S(=O)(=O)/N=C2/C=C(Sc3ncn[nH]3)C(=O)c3ccccc32)cc1,active: 20.6 µM,
CCN(CC)CCNC(=O)c1ccc(NC(=O)COc2ccc3c(c2)CCC3)cc1,,inactive: 1.69%
Cc1ccc(C)c(NC(=O)c2cnccn2)c1,"inconclusive: 35.5 µM [activator, single point]",
CCCCCCC(=O)Nc1nc(C)c(-c2csc(Nc3ccccc3OC)n2)s1,"inconclusive: 8.2 µM [inhibitor, partial curve]",
C=CC[C@@H](CC(=O)NCCO)C(=O)NC[C@H](OC(=O)[C@@H](CC=C)Cc1ccc(F)cc1)c1ccccc1,active: 3.26 µM,
CCCNc1nc2c(c(=O)n(C)c(=O)n2C)n1CCC(C)C,"inconclusive: 1.64 µM [inhibitor, single point]",
CCOc1ccc(-c2nnc(NC(=O)Cc3cc(OC)c(OC)c(OC)c3)o2)cc1,"inconclusive: 16.4 µM [activator, partial curve, poor fit]",
O=C(NCCCCNC(=O)C(F)(F)F)C(F)(F)F,"inconclusive: 1.46 µM [inhibitor, partial curve, poor fit]",
O=C(CNc1ccc(Br)cc1)c1ccc(Br)s1,"inconclusive: 20.6 µM [activator, single point]",
Cc1ccc2oc(=O)c3cnn(CC(=O)NCCc4ccsc4)c3c2c1,,inactive: 3.82%
CNC(=S)NCCc1ccccc1,"inconclusive: 20.6 µM [activator, partial curve, poor fit]",
CCOc1ccc(-c2nnc(SCC(=O)Nc3cc(C)on3)o2)cc1,"inconclusive: 29.1 µM [activator, single point]",
Cc1ccnc(NC(=O)CNC(=O)c2ccc3ccccc3c2)c1,"inconclusive: 15.8 µM [activator, partial curve, poor fit]",
Cc1nc(CC(=O)O)c(-c2ccccc2)s1,"inconclusive: 20.6 µM [activator, partial curve, poor fit]",
COC(=O)[C@@]12CCCN1[C@H](c1ccc(-c3ccc(F)cc3)cc1)[C@H]1C(=O)N(C)C(=O)[C@H]12,"inconclusive: 5.62 µM [inhibitor, single point]",
CC(C)CCNC(=O)C(=O)NCc1ccccc1,,inactive: 9.94%
COc1ccc(CN2CCN(S(=O)(=O)c3ccc(F)cc3)CC2)c(OC)c1OC,"inconclusive: 20.6 µM [inhibitor, single point]",
CS(=O)(=O)N1CCN(c2ccccc2NC(=O)c2ccc(-c3ccc(Br)cc3)o2)CC1,active: 14.6 µM,
Cc1ccc(OCCOC(=O)c2nc3nccc(C)n3n2)cc1,"inconclusive: 29.1 µM [activator, partial curve, poor fit]",
CCOC(=O)N1CCC(NC(=O)c2cc(C(=O)Nc3ccc(F)cc3F)ccc2CO)CC1,"inconclusive: 14.6 µM [inhibitor, partial curve]",
COc1ccc(OCC(=O)NC(=S)Nc2ccccc2F)cc1,"inconclusive: 18.4 µM [activator, single point]",
O=C(CC1S/C(=N/N=C/c2cccs2)NC1=O)Nc1ccc(Cl)c(Cl)c1 (stereo unspecified),"inconclusive: 10.3 µM [activator, partial curve, poor fit]",

Structure (SMILES),Potency,"activity change, negative = inhibition"
C#CCNC(=O)C1=C[C@@H](C2CCCCC2)C[C@@H](OCc2ccc(CO)cc2)O1,,inactive: -21.1%
Cc1ccc(NC(=O)C(=O)NCC2CCCO2)cc1 (stereo unspecified),"inconclusive: 16.4 µM [activator, partial curve]",
Cc1cccc(NC(=O)Cn2c(=O)oc3ccccc32)c1C,,inactive: 13.4%
Cc1ccc(OCC(=O)N/N=C/c2ccc3c(c2)OCO3)cc1C,"inconclusive: 29.1 µM [inhibitor, single point]",
O=Cc1cn(CCC(=O)O)nc1-c1cccc2ccccc12,,inactive: 1.24%
Cc1cccc(NS(=O)(=O)c2cc(C(=O)NCCC3=CCCCC3)ccc2Cl)c1,"inconclusive: 3.26 µM [inhibitor, partial curve, poor fit]",
COc1ccc2oc(C(=O)C3CC3)c(N)c2c1,"inconclusive: 18.4 µM [activator, partial curve]",
Cc1ccc(-n2[nH]c(C)c(CCC#N)c2=O)cc1,,inactive: -5.79%
CCCc1c(C(=O)N/N=C/c2ccc(C)s2)nnn1-c1nonc1N,,inactive: 20.4%
Nc1nc(SCC(=O)N2CCCc3ccccc32)n[nH]1,"inconclusive: 25.9 µM [activator, single point]",
COc1ccc(CNC(=O)C23CC4CC(CC(Br)(C4)C2)C3)cc1,,inactive: -0.352%
COc1ccc(NC(=O)CSc2nc3ccccc3c(=O)n2CCCN2CCC(C)CC2)c(OC)c1,,inactive: 14.8%
Cc1nn(CC(=O)NC2CCC(C)CC2)c(C)c1[N+](=O)[O-] (stereo unspecified),,inactive: 0.0039%
CCC(C)Sc1nc2c(c(=O)[nH]1)C(c1cccs1)C1=C(CCCC1=O)N2 (stereo unspecified),,inactive: -25.1%
Cc1nc2c(C)cccc2cc1C(=O)N/N=C/c1ccc(N(C)C)cc1,,inactive: -18.3%
Cc1ccc(NC(=O)c2ccc(C)cc2)cc1,"inconclusive: 3.98 µM [activator, partial curve]",
COc1cccc(CNC(=O)c2cccc(S(=O)(=O)N3CCN(c4ccc(F)cc4)CC3)c2)c1,"inconclusive: 4.61 µM [inhibitor, single point]",
Cc1cccc(NC(=O)c2n[nH]c([N+](=O)[O-])c2Br)c1C,"inconclusive: 4.11 µM [activator, partial curve]",
C(=C\c1nccc2c1[nH]c1ccccc12)/c1ccccc1,"inconclusive: 29.1 µM [inhibitor, single point]",
COc1ccc(-c2nnc(-c3ccc(Br)o3)o2)cc1OC,"inconclusive: 18.4 µM [activator, partial curve]",
CC(C)c1cccc(C(C)C)c1OC(=O)[C@H]1OC(c2ccc(Br)cc2)=C[C@@H]1c1ccc(Br)cc1,"inconclusive: 29.1 µM [inhibitor, single point]",
O=C1COc2ccc(S(=O)(=O)CCC(=O)N3CCN(c4cccc(Cl)c4)CC3)cc2N1,"inconclusive: 29.1 µM [inhibitor, single point]",
COc1ccc(Br)cc1/C=N/NC(=O)C(c1ccncc1)N1CCOCC1 (stereo unspecified),,inactive: -16.4%

# Pulled by compound from above (four):
Structure (SMILES),Potency,"activity change, negative = inhibition"
COc1ccc(NC(=O)CSc2nc3ccccc3c(=O)n2CCCN2CCC(C)CC2)c(OC)c1,,inactive: 14.8%
Cc1cccc(NC(=O)Cn2c(=O)oc3ccccc32)c1C,,inactive: 13.4%
FC(F)(F)c1cccc(N2Cc3ccccc3C2)c1,"inconclusive: 23.1 µM [activator, partial curve, poor fit]",
O=Cc1cn(CCC(=O)O)nc1-c1cccc2ccccc12,,inactive: 1.24%
